# Assay results: US20220050096A1, “ANALYTE-SENSITIVE PROBES AND CONTACT LENS FOR DIAGNOSIS OF OCULAR PATHOLOGIES” (University Of Maryland, Baltimore, priority 2020, published 2022)
# Assay: Chloride quenching (Stern-Volmer) of SPQ-C18 in contact lenses
# Type: physicochemical
# Procedure: Quenching by Chloride. […] The intensities (I) and lifetimes (6) are analyzed using the Stern-Volmer equation, where F0 and τ0 are the intensities and lifetimes in the absence of chloride, and K is the quenching constant and the inverse of the [Cl^-] needed for 50% quenching. For collisional quenching, the value of F0/F and τ0/τ are typically the same. In solution, in the absence of lenses, the value of K=kq τ0 can be used to calculate the biomolecular quenching constant kq and the quenching efficiency. In the lenses, the [Cl-] may not be the same as in the bulk solution, but kq in the lenses is estimated by assuming the same concentration of chloride around the SPQ moiety in the lenses and in bulk solutions. Chloride-sensitive lenses were prepared using SPQ-C18. The quinolinium moiety in SPQ-C18 can be used for chloride sensing in tears. Its unquenched lifetime near 18.5 ns (see Table 14 and Table 15, below) which results in significant changes up to chloride concentrations of 220 mM, which is well above the physiological range. BiofinityTM and […] lenses labeled with SPQ-C18 were both found to display significant quenching at physiological concentrations of chloride near 120 mM. The emission intensities of SPQ-C18 were quenched by about 50% at this chloride concentration (FIG. 31 and FIG. 32). The emission spectra are not changed by quenching so intensity-based sensing may be different in a realworld application. […] Chloride quenching was analyzed using the Stern-Volmer equation for intensities and lifetimes (equations 7 and 8). In this analysis, we used the average lifetimes (equation 2) that is more appropriate for quenching. […] In contrast quenching of SP-PL, both intensity and lifetime, continue to decrease as the chloride concentration is increased. At the molecular level, the most interesting term is the biomolecular quenching constant kq. This value can be understood by comparison with quenching of a fluorophore in solution without any steric barriers. […]
structure (smiles),measurement,setting,value
"CCCCCCCCCCCCCCCCCC[n+]1cccc2cc(OC)ccc21 [SPQ-C18, N-Octadecyl-6-methoxyquinolinium bromide]",reversibility of chloride quenching,Biofinity and MyDay,completely reversible
same,limit of detection of chloride ion,labeled lens,10 mM
same,limit of quantification of chloride ion,labeled lens,25 mM
